# From patent US8685372B2, “Peptides and aptamers for targeting of neuron or nerves” (The Regents of the University of California, priority 2009, dated 2014)
# At least one peptide structure holds a part that was inferred or is arguable (an end, a ring closure or a residue). Residues, ends and D or L forms follow the SMILES beside them. *: point of attachment. 5FAM = O=C1OC2(c3ccc(O)cc3Oc3cc(O)ccc32)c2ccc(C(=O)*)cc21
# System: sciatic nerves
# Experiment: In vivo nerve labeling with fluorescently labeled peptides (nerve versus adjacent non-nerve tissue)
# Set-up: species or system mice
# Conditions: derivatives of peptide SEQ ID NO: 4
# Method: To test the nerve binding affinity of each of the isolated peptide sequences in vivo, carboxyfluorescein (FAM)-labeled peptides were injected intravenously into living mice. Following a wash-out period, the contrast between nerve and muscle binding of the labeled peptides was evaluated.
# Wild-type albino C57BL6 (Jackson Laboratory) or SKH1 (Charles River Laboratories) mice were treated intravenously with 150 nmoles of fluorescently labeled SEQ ID NO:4 via tail vein injection. Following a 2-3 hour wash-out period for SEQ ID NO:25 or 5-6 hours for SEQ ID NO:31, mice were anesthetized with ketamine and midazolam (80 mg/kg intraperitoneally), a skin incision was made over the dorsal surface of the hind, legs and the sciatic nerves exposed bilaterally. […] Nerves and adjacent non-nerve tissue was delineated with Image J and relative fluorescence was measured. Following background subtraction using dark current measurements and measurements of a standard, the ratios of peptide binding to nerve versus adjacent non-nerve tissue were calculated.
smiles,measurement,value
"CC(=O)NCCCC[C@H](NC(=O)[C@H](C)NC(=O)[C@H](CC(C)C)NC(=O)[C@@H](NC(=O)[C@H](CCC(N)=O)NC(=O)[C@@H](NC(=O)[C@H](CC(N)=O)NC(=O)[C@H](CO)NC(=O)[C@H](Cc1c[nH]cn1)NC(=O)[C@H](CO)NC(C)=O)[C@@H](C)O)[C@@H](C)O)C(=O)N[C@@H](C)C(=O)N1CCC[C@H]1C(=O)N[C@@H](CCC(=O)O)C(=O)N[C@@H](Cc1c[nH]cn1)C(=O)N[C@H](C(=O)NCC(=O)N[C@@H](CCCCNC(=O)c1ccc2c(c1)C(=O)OC21c2ccc(O)cc2Oc2cc(O)ccc21)C(N)=O)[C@@H](C)O [SEQ ID NO: 45, acetyl- SHSNTQTLA-(acetyl-lysine)-APEHTGK (5,6FAM)-amide] (Ac-SHSNTQTLAK(Ac)APEHTGK(5FAM)-NH2)",Nerve contrast,Medium/High
